Measurements taken from the supplement of paper PMC11732987, “Enantioselective OTUD7B fragment discovery through chemoproteomics screening and high-throughput optimisation” (Communications Chemistry, 2025).
The other results are listed elsewhere or left out. The data scatter; read single values as rough.

Sequences of proteins named here, by UniProt entry; tags and fusion partners are left off. A change or cut given only in a name is not applied to a line headed by its entry. Residues count along the entry.
UniProt O95235: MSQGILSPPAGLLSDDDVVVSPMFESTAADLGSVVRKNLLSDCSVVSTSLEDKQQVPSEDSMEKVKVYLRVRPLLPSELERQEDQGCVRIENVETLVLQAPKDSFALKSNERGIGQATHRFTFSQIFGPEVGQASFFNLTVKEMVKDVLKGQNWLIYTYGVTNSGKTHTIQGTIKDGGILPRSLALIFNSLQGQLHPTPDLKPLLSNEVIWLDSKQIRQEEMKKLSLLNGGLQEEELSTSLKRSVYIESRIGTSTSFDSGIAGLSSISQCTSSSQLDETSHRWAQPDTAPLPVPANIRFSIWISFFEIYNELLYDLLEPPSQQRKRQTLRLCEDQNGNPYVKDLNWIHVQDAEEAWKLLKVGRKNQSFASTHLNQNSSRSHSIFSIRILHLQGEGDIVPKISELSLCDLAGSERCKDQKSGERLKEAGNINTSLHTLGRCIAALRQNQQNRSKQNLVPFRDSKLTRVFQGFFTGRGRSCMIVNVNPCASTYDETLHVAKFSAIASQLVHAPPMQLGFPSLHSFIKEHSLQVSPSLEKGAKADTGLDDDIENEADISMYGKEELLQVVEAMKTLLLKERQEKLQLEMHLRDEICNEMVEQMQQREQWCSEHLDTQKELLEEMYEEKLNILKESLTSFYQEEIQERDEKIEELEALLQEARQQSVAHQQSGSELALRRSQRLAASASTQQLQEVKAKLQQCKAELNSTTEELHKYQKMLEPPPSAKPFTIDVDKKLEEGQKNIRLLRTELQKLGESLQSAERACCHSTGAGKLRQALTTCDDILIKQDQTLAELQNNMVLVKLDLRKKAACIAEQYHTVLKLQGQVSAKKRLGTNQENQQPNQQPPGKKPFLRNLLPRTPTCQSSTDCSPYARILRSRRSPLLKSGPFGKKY
UniProt Q9Y2K7, 707-733: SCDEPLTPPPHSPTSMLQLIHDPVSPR
UniProt Q8NB78: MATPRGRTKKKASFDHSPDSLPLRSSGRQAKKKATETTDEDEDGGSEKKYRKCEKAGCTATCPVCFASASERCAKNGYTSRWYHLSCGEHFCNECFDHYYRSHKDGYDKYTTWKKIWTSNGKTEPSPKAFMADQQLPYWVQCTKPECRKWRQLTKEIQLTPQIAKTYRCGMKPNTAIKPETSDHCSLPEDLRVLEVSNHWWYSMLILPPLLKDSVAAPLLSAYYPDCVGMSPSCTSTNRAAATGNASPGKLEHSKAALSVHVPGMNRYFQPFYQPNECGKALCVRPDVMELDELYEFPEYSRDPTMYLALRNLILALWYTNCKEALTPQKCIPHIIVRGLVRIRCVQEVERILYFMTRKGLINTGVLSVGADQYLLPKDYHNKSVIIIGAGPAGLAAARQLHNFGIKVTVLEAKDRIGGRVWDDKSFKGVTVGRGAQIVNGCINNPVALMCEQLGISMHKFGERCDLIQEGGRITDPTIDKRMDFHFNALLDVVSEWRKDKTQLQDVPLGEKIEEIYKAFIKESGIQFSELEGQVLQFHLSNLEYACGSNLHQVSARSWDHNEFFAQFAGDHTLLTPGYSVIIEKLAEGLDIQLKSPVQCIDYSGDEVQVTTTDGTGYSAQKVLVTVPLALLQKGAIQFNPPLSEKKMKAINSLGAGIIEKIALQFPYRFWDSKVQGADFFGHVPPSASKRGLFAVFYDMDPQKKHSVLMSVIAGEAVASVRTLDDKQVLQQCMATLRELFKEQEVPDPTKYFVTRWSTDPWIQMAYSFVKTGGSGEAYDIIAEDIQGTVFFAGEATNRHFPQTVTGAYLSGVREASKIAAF
UniProt Q96J02: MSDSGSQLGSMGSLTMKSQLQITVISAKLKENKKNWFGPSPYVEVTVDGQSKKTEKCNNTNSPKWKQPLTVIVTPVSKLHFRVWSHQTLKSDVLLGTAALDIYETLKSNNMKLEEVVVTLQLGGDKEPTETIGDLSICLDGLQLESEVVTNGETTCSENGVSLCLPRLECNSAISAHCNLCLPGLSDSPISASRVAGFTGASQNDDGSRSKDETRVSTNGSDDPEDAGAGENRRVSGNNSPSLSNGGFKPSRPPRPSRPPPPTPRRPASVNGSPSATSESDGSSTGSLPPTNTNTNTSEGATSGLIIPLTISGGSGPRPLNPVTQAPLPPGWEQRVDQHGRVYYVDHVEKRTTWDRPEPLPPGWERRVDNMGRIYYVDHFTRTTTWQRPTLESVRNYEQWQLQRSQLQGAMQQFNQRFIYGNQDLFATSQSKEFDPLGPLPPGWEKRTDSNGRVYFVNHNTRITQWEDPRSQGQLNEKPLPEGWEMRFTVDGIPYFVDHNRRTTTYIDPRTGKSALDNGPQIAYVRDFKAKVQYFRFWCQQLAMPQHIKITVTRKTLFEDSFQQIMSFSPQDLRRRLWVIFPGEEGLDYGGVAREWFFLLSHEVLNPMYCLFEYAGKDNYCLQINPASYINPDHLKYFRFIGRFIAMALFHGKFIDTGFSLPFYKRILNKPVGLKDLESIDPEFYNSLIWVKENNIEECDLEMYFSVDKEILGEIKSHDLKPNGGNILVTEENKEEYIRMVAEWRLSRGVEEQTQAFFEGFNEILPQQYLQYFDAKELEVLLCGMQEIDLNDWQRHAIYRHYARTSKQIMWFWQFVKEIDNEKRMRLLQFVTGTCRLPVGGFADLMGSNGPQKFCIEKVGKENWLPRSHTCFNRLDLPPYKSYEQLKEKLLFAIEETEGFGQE
UniProt Q14573, whole entry, looked up: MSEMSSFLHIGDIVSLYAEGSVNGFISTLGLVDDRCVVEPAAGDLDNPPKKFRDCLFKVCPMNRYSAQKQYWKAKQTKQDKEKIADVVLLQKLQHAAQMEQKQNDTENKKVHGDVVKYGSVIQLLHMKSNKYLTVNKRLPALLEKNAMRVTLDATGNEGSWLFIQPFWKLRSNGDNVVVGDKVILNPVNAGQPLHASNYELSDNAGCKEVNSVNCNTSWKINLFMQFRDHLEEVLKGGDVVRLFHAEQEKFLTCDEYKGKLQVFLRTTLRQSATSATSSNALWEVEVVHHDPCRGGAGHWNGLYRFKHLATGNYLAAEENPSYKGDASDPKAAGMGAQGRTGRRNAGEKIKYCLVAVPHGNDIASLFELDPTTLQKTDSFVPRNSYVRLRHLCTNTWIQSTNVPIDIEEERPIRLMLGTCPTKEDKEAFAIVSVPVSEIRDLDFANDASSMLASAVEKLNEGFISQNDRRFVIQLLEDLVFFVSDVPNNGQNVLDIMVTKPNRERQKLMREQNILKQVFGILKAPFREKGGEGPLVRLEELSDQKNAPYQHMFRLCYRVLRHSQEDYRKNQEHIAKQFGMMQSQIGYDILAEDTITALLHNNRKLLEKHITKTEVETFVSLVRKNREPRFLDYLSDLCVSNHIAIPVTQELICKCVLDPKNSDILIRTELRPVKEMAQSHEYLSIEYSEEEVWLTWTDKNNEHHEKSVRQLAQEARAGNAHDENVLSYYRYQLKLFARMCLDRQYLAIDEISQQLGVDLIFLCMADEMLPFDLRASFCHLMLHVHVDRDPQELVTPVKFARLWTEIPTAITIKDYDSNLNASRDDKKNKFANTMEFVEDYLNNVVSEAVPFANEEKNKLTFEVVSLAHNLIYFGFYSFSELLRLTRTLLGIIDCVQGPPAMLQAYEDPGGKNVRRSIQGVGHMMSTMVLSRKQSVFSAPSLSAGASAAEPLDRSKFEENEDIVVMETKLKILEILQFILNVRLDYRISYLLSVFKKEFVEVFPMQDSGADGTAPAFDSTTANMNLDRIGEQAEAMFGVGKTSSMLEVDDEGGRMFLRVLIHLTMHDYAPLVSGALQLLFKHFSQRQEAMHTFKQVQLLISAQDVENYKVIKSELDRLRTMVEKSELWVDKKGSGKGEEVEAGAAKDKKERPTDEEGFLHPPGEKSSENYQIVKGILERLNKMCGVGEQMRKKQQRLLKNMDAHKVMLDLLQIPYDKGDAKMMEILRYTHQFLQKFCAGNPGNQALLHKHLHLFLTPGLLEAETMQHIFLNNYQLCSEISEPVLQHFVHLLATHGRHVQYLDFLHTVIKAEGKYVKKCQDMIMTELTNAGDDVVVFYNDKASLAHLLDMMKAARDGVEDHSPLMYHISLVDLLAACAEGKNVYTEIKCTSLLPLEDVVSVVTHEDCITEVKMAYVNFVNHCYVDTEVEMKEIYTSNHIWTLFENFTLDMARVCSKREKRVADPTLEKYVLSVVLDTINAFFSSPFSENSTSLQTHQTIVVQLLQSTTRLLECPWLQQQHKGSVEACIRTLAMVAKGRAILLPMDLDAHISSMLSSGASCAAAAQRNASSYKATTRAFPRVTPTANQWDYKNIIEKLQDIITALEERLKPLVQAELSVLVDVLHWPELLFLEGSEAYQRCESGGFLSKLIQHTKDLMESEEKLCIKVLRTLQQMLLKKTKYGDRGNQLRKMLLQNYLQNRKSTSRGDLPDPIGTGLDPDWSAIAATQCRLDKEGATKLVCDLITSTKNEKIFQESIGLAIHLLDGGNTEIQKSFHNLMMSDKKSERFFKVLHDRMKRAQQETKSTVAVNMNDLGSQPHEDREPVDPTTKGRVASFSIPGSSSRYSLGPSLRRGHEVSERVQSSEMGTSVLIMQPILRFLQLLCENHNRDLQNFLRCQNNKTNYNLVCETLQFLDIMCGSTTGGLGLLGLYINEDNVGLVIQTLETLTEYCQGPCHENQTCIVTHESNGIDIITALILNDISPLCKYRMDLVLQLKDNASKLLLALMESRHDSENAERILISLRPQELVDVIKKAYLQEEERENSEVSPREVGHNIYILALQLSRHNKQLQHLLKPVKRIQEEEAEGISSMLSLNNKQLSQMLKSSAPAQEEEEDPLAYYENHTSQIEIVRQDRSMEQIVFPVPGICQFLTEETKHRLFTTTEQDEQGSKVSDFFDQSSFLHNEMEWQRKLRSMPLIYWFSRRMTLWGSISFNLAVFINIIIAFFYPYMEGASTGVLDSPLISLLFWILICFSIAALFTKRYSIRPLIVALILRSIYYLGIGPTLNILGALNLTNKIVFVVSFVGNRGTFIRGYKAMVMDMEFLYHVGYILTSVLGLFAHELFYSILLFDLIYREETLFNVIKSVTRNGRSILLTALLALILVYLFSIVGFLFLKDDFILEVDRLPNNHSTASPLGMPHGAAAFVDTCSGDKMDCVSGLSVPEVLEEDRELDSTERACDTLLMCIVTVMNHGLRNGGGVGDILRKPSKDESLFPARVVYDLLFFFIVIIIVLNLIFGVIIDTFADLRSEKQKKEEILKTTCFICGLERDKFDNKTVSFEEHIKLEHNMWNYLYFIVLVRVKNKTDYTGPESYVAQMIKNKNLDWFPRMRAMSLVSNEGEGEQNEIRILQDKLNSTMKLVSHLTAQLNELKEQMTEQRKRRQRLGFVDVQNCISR
UniProt P23458: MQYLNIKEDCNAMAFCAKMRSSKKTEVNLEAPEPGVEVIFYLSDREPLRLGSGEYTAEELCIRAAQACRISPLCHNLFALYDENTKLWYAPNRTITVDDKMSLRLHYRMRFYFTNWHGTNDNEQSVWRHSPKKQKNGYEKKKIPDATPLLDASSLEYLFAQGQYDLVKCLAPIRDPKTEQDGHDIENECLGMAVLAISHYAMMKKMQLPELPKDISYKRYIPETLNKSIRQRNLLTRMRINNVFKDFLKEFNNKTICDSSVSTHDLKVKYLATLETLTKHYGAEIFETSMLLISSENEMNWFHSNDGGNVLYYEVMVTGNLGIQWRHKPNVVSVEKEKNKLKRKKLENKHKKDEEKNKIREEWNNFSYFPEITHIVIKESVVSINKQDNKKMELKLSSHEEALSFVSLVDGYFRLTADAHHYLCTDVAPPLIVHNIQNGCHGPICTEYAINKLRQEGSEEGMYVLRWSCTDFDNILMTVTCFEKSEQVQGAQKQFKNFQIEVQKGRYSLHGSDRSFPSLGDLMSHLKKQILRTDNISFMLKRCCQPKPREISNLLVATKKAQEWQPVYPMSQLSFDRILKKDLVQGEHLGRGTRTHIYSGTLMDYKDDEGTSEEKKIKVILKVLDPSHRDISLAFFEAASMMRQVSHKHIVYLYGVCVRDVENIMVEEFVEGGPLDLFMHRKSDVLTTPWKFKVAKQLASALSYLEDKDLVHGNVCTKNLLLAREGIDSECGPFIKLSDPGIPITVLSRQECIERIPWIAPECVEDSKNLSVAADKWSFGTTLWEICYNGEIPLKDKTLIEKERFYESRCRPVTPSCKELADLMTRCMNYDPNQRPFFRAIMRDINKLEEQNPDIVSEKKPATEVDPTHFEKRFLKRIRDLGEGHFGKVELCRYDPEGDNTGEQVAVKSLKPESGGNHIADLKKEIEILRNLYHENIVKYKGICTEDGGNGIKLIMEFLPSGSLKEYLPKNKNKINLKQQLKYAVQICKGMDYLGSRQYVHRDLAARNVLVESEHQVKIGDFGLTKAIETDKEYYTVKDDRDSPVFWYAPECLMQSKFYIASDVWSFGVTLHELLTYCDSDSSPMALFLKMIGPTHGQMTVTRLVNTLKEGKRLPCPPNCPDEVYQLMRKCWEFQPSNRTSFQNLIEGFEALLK

compound: ClCC(=O)N[C@H]1CCCc2ccccc12; experiment: log2 mean competition ratio of IA-DTB cysteine labelling (DMSO/compound) (log2 ratio); higher = stronger cysteine engagement by compound; conditions: 50 µM; treatment time: 4 h; cell line lysate: HEK293T
Procedure: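 IA-DTB competitive cysteine chemoproteomics in HEK293T RIPA lysate. Lysates were treated with compound 29 or 30 at 50 or 200 µM for 4 h, then IA-DTB (500 µM, 1 h), trypsin-digested, NeutrAvidin-enriched and analysed by diaPASEF. Competition ratio = intensity DMSO / intensity compound (n=4 treated, n=64 DMSO); binding: mean log2 CR ≥ 1 and p ≤ 0.05 plus QC filters. Target is the cysteine site.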

| Target | log2 mean competition ratio |
| --- | --- |
| KIF20A C43 (UniProt O95235) | -0.263 |
| KDM2A C429 (UniProt Q9Y2K7) | -0.177 |
| KDM1B C465 (UniProt Q8NB78) | -0.36 |
| KIAA1522 C321 (UniProt Q9P206) | -0.256 |
| KIF1C C350 (UniProt O43896) | -0.0237 |
| KDM1A C491 (UniProt O60341) | 0.121 |
| ITFG2 C140 | -0.0296 |
| ITCH C871 (UniProt Q96J02) | 0.507 |
| KDM2A C708 (UniProt Q9Y2K7) | 0.105 |
| KDM3A C390 (UniProt Q9Y4C1) | 0.179 |
| IRF3 C222 (UniProt Q14653) | -0.00278 |
| KAT6A C393 | -0.107 |
| ITPR3 C420 (UniProt Q14573) | 0.557 |
| KIF23 C412 (UniProt Q02241) | 0.171 |
| ITPRID2 C703 (UniProt P28290) | 0.389 |
| ITPR3 C1638 (UniProt Q14573) | 0.145 |
| KIF22 C65 (UniProt Q14807) | -0.0931 |
| KIF2A C309 (UniProt O00139) | 0.639 |
| JAK1 C944 (UniProt P23458) | -0.226 |
| IRS4 C257 | 0.448 |

same assay, conditions: 200 µM; treatment time: 4 h; cell line lysate: HEK293T

| Target | log2 mean competition ratio |
| --- | --- |
| KIF20A C43 (UniProt O95235) | -0.345 |
| KDM2A C429 (UniProt Q9Y2K7) | 0.738 |
| KDM1B C465 (UniProt Q8NB78) | 0.0107 |
| KIAA1522 C321 (UniProt Q9P206) | -0.14 |
| KIF1C C350 (UniProt O43896) | -0.0729 |
| KDM1A C491 (UniProt O60341) | 0.0431 |
| ITFG2 C140 | 0.0716 |
| ITCH C871 (UniProt Q96J02) | -0.0564 |
| KDM2A C708 (UniProt Q9Y2K7) | -0.00394 |
| KDM3A C390 (UniProt Q9Y4C1) | 0.105 |
| IRF3 C222 (UniProt Q14653) | -0.107 |
| KAT6A C393 | 0.441 |
| ITPR3 C420 (UniProt Q14573) | -0.223 |
| KIF23 C412 (UniProt Q02241) | -0.537 |
| ITPRID2 C703 (UniProt P28290) | 0.256 |
| ITPR3 C1638 (UniProt Q14573) | 0.0578 |
| KIF22 C65 (UniProt Q14807) | 0.268 |
| KIF2A C309 (UniProt O00139) | 0.102 |
| JAK1 C944 (UniProt P23458) | 0.0576 |
| IRS4 C257 | -0.264 |
